The results in this text go back to the supplement of paper PMC6411743.

Amino acid sequences for entries named in this document (tags omitted). A change or cut given only in a name is not applied to a line headed by its entry.
UniProt Q9UHI6: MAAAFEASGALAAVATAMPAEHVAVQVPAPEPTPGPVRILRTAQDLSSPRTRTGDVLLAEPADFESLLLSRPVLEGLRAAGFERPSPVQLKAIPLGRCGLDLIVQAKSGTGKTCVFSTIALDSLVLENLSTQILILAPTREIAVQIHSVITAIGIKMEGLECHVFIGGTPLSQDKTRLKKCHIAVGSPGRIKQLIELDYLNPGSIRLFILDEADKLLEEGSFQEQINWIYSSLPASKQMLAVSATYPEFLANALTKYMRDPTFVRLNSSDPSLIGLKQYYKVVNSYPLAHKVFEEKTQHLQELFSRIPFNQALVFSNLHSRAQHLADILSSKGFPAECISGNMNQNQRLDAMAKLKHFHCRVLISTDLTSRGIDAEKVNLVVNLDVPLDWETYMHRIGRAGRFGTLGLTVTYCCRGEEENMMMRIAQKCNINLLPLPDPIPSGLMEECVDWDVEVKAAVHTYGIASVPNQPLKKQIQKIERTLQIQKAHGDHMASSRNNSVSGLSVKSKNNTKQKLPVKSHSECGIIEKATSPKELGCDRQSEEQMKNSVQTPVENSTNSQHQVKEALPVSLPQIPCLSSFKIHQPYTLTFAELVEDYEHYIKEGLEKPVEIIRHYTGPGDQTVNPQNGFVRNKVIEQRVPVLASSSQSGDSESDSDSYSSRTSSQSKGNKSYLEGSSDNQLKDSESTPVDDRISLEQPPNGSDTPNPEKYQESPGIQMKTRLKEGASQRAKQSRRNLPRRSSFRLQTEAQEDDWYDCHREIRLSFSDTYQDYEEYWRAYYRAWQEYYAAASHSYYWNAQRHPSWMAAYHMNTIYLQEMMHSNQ
UniProt Q9NW08: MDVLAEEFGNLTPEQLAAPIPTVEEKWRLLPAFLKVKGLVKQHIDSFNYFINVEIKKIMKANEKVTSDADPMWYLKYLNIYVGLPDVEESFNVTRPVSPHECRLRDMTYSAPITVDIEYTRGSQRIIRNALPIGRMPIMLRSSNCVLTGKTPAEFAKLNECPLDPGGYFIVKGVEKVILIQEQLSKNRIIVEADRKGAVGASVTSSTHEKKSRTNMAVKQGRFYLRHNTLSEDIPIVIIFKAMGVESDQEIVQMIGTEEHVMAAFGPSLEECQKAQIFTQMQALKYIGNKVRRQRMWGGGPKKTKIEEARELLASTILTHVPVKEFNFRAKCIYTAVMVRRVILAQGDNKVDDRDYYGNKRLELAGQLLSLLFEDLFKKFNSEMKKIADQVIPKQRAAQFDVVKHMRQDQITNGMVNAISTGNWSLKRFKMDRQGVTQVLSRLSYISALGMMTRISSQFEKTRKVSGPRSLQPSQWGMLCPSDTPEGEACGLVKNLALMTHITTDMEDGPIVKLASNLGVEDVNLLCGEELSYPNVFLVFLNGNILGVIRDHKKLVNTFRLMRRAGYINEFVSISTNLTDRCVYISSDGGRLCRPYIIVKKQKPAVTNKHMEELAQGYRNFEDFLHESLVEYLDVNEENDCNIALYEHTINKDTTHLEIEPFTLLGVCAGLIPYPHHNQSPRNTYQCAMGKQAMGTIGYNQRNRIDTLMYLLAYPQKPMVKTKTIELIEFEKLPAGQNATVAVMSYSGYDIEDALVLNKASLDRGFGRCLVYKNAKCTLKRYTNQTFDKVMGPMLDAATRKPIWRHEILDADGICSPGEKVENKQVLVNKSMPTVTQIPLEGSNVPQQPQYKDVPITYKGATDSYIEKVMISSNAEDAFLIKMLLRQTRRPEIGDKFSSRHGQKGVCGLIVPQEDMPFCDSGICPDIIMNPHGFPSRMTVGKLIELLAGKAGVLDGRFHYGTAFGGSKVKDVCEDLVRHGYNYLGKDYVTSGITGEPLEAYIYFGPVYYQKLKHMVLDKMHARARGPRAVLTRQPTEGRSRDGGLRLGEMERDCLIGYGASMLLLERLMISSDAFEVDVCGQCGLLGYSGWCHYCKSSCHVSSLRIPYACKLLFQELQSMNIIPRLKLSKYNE
UniProt Q9P2J5: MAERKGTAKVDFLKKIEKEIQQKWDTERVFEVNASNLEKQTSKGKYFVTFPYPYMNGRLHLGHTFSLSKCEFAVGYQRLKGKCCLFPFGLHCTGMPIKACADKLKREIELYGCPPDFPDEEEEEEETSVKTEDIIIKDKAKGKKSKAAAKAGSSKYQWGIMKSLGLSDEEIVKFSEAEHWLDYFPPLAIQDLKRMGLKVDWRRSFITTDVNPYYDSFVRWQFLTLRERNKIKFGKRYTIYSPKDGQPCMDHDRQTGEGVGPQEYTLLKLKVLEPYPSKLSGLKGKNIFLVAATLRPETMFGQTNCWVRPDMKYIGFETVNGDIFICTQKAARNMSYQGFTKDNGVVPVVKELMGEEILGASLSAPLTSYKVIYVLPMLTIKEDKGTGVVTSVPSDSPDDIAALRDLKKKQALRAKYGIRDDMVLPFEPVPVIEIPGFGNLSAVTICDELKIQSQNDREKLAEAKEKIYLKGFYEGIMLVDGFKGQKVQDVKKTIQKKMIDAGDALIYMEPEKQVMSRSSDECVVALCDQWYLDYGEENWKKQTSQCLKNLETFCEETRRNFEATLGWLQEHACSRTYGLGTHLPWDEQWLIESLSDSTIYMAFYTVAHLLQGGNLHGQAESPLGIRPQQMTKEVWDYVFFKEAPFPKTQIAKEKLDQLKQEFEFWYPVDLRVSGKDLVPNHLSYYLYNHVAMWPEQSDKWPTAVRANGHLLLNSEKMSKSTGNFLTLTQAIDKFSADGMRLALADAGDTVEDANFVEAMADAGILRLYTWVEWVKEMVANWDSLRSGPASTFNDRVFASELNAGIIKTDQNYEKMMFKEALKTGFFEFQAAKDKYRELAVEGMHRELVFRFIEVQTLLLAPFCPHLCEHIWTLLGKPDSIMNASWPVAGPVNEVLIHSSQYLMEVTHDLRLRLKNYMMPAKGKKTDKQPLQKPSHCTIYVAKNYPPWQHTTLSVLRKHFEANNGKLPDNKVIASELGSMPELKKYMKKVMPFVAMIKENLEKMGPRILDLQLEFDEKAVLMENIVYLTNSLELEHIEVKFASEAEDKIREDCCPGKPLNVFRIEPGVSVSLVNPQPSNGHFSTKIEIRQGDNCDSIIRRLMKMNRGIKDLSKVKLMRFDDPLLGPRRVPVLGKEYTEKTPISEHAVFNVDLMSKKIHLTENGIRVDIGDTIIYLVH
UniProt Q9UHW5, whole entry: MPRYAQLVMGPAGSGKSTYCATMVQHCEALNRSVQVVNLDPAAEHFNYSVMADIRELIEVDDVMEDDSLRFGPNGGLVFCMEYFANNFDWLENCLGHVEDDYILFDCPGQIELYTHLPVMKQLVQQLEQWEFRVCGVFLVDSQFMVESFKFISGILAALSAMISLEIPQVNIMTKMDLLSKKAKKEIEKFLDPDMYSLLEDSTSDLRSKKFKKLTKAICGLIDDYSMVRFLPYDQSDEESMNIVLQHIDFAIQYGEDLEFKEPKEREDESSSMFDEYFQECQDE
UniProt Q9UHY1: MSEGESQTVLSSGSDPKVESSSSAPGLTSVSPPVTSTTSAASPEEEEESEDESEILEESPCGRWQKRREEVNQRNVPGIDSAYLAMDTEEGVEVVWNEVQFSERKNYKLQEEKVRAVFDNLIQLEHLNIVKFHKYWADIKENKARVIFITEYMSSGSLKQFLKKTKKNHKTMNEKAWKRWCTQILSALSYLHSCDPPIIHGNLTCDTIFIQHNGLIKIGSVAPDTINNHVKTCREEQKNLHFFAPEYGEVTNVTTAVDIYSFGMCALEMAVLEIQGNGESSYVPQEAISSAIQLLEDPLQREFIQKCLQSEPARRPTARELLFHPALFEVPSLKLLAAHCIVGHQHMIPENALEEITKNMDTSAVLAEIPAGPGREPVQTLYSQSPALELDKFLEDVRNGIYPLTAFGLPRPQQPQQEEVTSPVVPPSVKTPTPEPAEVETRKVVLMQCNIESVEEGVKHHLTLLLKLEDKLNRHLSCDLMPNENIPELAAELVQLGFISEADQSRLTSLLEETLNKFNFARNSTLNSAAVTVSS
UniProt Q9UBS0: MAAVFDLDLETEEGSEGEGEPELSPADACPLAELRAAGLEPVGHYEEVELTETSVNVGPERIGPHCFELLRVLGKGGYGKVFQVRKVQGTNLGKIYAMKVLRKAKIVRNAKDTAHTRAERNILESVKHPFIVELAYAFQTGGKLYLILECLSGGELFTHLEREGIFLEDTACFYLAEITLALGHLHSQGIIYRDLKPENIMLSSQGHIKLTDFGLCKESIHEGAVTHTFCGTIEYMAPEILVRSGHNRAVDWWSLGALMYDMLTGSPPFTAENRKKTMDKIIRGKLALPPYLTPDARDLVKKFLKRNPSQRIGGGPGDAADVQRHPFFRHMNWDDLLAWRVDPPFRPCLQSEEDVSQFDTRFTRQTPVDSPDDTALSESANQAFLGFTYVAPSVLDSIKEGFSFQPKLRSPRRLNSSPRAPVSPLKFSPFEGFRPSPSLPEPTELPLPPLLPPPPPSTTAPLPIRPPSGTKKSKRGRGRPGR
UniProt Q9UHD2: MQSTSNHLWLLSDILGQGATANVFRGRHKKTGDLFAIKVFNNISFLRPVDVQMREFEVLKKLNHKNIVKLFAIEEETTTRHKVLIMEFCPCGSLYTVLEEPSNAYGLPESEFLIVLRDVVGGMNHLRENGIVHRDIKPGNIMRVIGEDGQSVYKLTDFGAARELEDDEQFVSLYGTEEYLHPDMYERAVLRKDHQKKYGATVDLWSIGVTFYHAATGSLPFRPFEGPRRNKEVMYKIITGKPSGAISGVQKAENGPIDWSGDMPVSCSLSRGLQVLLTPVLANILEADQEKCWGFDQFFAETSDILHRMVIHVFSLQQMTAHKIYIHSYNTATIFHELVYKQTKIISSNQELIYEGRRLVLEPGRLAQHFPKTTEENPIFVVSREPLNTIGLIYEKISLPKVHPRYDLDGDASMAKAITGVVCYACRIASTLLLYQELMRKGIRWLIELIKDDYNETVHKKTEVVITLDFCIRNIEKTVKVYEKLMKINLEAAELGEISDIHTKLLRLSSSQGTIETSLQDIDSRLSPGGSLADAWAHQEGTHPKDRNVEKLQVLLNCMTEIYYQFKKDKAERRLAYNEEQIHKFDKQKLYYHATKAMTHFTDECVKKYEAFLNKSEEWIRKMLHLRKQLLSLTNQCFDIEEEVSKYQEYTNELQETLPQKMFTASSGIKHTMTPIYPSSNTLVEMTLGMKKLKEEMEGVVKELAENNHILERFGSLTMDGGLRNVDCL
UniProt Q9NVF7: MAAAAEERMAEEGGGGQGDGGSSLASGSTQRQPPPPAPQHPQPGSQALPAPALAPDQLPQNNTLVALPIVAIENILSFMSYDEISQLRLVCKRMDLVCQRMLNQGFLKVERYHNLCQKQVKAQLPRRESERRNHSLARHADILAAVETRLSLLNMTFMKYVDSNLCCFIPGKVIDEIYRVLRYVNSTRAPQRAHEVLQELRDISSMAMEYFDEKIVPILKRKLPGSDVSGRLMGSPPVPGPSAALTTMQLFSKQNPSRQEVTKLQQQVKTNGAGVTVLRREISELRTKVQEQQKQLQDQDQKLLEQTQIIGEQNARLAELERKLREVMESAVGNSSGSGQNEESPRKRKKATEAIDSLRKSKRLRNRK
UniProt Q9UBM7: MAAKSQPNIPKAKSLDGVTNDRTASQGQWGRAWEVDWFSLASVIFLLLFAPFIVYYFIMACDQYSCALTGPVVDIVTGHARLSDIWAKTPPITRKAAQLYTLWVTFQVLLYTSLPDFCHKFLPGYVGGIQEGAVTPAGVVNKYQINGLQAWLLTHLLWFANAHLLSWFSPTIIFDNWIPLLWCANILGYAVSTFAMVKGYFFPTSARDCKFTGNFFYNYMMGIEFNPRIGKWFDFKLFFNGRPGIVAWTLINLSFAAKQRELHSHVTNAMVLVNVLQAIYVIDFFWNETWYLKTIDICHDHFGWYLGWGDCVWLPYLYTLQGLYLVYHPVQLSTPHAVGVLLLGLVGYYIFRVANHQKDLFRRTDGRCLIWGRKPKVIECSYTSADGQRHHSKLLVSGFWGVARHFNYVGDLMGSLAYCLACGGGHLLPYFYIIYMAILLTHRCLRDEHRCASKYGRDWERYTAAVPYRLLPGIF
UniProt Q9UII2: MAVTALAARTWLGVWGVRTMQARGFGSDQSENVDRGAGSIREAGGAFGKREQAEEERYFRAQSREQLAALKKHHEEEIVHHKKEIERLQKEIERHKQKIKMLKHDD
UniProt Q9NX46: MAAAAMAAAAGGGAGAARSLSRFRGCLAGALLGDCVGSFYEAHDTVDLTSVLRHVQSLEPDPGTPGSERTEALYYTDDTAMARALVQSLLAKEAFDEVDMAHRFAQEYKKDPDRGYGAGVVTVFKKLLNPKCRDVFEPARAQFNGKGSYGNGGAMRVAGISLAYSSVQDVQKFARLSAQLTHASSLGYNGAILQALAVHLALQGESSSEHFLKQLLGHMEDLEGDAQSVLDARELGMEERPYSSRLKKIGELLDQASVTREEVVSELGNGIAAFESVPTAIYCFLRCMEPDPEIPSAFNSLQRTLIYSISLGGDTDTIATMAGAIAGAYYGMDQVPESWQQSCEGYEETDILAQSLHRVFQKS

Compound in the test: Nc1nc2c(ncn2[C@@H]2O[C@H](COP(=O)(O)OP(=O)(O)OP(=O)(O)O)[C@@H](O)[C@H]2O)c(=O)[nH]1 [guanosine triphosphate]
The experiment in a line: NP40-soluble protein abundance relative to vehicle (solubility fold change) (ratio); higher = more soluble protein in presence of GTP. The method, boiled down: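 Jurkat crude lysate prepared with a Dounce homogeniser was treated at eight concentrations spanning 0.1 to 10 mM, 10 min at room temperature then 3 min at 37 °C. Solubilisation with 0.8% NP40 and benzonase and ultracentrifugation preceded TMT labelling of the supernatant for LC-MS/MS. Fold change against the detergent-processed vehicle was determined per replicate from vsn-normalised intensities, across three independent experiments.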

± gives the standard deviation of the averaged measurements. The list shows a part of the results.

DDX20 (UniProt Q9UHI6): the NP40-soluble protein abundance runs as follows: (concentration: 0.1mM) 1.06 ± 0.06; (concentration: 0.5mM) 1.1 ± 0.083; (concentration: 1mM) 1.13 ± 0.16; (concentration: 2mM) 1.22 ± 0.18; (concentration: 4mM) 1.3 ± 0.21; (concentration: 6mM) 1.26 ± 0.2. The NP40-soluble protein abundance amounted to 1.26 ± 0.2 (concentration: 8mM) and 1.26 ± 0.24 (concentration: 10mM).

For MED13 (UniProt Q9UHV7), the NP40-soluble protein abundance reads like this: (concentration: 0.1mM) 1.02 ± 0.059; (concentration: 0.5mM) 0.995 ± 0.14; (concentration: 1mM) 1.04 ± 0.091; (concentration: 2mM) 1.03 ± 0.067; (concentration: 4mM) 1.09 ± 0.085; (concentration: 6mM) 1.08 ± 0.11. Also, the NP40-soluble protein abundance reads like this: (concentration: 8mM) 1.09 ± 0.1; (concentration: 10mM) 1.09 ± 0.12.

Turning to UniProt Q9NW08 and related entries, the NP40-soluble protein abundance stood at 1.08 ± 0.03 (concentration: 0.1mM); 1.13 ± 0.075 (concentration: 0.5mM); 1.09 ± 0.12 (concentration: 1mM); 1.15 ± 0.18 (concentration: 2mM); 1.19 ± 0.16 (concentration: 4mM); 1.16 ± 0.19 (concentration: 6mM). The NP40-soluble protein abundance reads like this: (concentration: 8mM) 1.13 ± 0.18; (concentration: 10mM) 1.09 ± 0.17.

In the case of LARS (UniProt Q9P2J5), the NP40-soluble protein abundance (concentration: 0.1mM) was 1.05 ± 0.078; the NP40-soluble protein abundance (concentration: 0.5mM) came to 1.13 ± 0.15; the NP40-soluble protein abundance (concentration: 1mM) is 1.07 ± 0.18; the NP40-soluble protein abundance (concentration: 2mM) stood at 1.17 ± 0.26; the NP40-soluble protein abundance (concentration: 4mM) was 1.2 ± 0.26; the NP40-soluble protein abundance (concentration: 6mM) was 1.21 ± 0.28. In addition, the NP40-soluble protein abundance (concentration: 8mM) stood at 1.16 ± 0.24 and the NP40-soluble protein abundance (concentration: 10mM) came to 1.09 ± 0.23.

Turning to UniProt Q9UHW5 and related entries, the NP40-soluble protein abundance is, setting by setting: (concentration: 0.1mM) 1.08 ± 0.033; (concentration: 0.5mM) 1.12 ± 0.17; (concentration: 1mM) 1 ± 0.17; (concentration: 2mM) 1.1 ± 0.28; (concentration: 4mM) 1.03 ± 0.13; (concentration: 6mM) 1.05 ± 0.16. In addition, the NP40-soluble protein abundance runs as follows: (concentration: 8mM) 0.981 ± 0.04; (concentration: 10mM) 1.04 ± 0.099.

On to “UniProt Q9NW15-5|Q9NW15 and related entries”, for which the NP40-soluble protein abundance (concentration: 0.1mM) came to 1.18 ± 0.14; the NP40-soluble protein abundance (concentration: 0.5mM) amounted to 1.07 ± 0.045; the NP40-soluble protein abundance (concentration: 1mM) worked out at 1.1 ± 0.12; the NP40-soluble protein abundance (concentration: 2mM) is 0.978 ± 0.17; the NP40-soluble protein abundance (concentration: 4mM) turned out to be 1.06 ± 0.17; the NP40-soluble protein abundance (concentration: 6mM) is 0.981 ± 0.15. The NP40-soluble protein abundance (concentration: 8mM) was 0.975 ± 0.11 and the NP40-soluble protein abundance (concentration: 10mM) is 0.987 ± 0.16.

Regarding CHD7 (UniProt Q9P2D1), the NP40-soluble protein abundance came to 0.994 ± 0.0092 (concentration: 0.1mM); 0.988 ± 0.1 (concentration: 0.5mM); 1.03 ± 0.13 (concentration: 1mM); 0.985 ± 0.13 (concentration: 2mM); 0.957 ± 0.03 (concentration: 4mM); 1.03 ± 0.16 (concentration: 6mM). Also, the NP40-soluble protein abundance is, setting by setting: (concentration: 8mM) 0.904 ± 0.044; (concentration: 10mM) 0.992 ± 0.0044.

With UniProt Q9UHY1 and related entries, the NP40-soluble protein abundance (concentration: 0.1mM) amounted to 0.99 ± 0.024; the NP40-soluble protein abundance (concentration: 0.5mM) was 0.959 ± 0.027; the NP40-soluble protein abundance (concentration: 1mM) worked out at 1.01 ± 0.035; the NP40-soluble protein abundance (concentration: 2mM) was 0.972 ± 0.039; the NP40-soluble protein abundance (concentration: 4mM) was 0.967 ± 0.073; the NP40-soluble protein abundance (concentration: 6mM) was determined as 0.97 ± 0.049. The NP40-soluble protein abundance by setting is: (concentration: 8mM) 0.954 ± 0.07; (concentration: 10mM) 0.949 ± 0.033.

Regarding UniProt Q9UBS0, the NP40-soluble protein abundance (concentration: 0.1mM) is 1.13 ± 0.16; the NP40-soluble protein abundance (concentration: 0.5mM) amounted to 1.14 ± 0.09; the NP40-soluble protein abundance (concentration: 1mM) came out at 1.04 ± 0.14; the NP40-soluble protein abundance (concentration: 2mM) was 1.11 ± 0.056; the NP40-soluble protein abundance (concentration: 4mM) turned out to be 1.18 ± 0.14; the NP40-soluble protein abundance (concentration: 6mM) is 1.05 ± 0.088. Also, the NP40-soluble protein abundance worked out at 1.1 ± 0.22 (concentration: 8mM) and 1.04 ± 0.15 (concentration: 10mM).

As for TBK1 (UniProt Q9UHD2), the NP40-soluble protein abundance by setting is: (concentration: 0.1mM) 1.06 ± 0.065; (concentration: 0.5mM) 1.03 ± 0.061; (concentration: 1mM) 1.01 ± 0.1; (concentration: 2mM) 0.984 ± 0.058; (concentration: 4mM) 0.988 ± 0.053; (concentration: 6mM) 0.959 ± 0.07. Besides, the NP40-soluble protein abundance amounted to 0.965 ± 0.041 (concentration: 8mM) and 0.898 ± 0.023 (concentration: 10mM).

For the target AKAP11 (UniProt Q9UKA4), the NP40-soluble protein abundance (concentration: 0.1mM) was 0.999 ± 0.17; the NP40-soluble protein abundance (concentration: 0.5mM) came to 0.999 ± 0.08; the NP40-soluble protein abundance (concentration: 1mM) was 1.09 ± 0.14; the NP40-soluble protein abundance (concentration: 2mM) was found to be 1.03 ± 0.079; the NP40-soluble protein abundance (concentration: 4mM) was 1.11 ± 0.18; the NP40-soluble protein abundance (concentration: 6mM) was 1.09 ± 0.061. Further, the NP40-soluble protein abundance reads like this: (concentration: 8mM) 1.04 ± 0.14; (concentration: 10mM) 1.02 ± 0.069.

As for FBXO28 (UniProt Q9NVF7), the NP40-soluble protein abundance turned out to be 1.09 ± 0.028 (concentration: 0.1mM); 1.08 ± 0.13 (concentration: 0.5mM); 1.28 ± 0.18 (concentration: 1mM); 1.31 ± 0.099 (concentration: 2mM); 1.39 ± 0.12 (concentration: 4mM); 1.47 ± 0.12 (concentration: 6mM). Besides, the NP40-soluble protein abundance came to 1.42 ± 0.28 (concentration: 8mM) and 1.61 ± 0.25 (concentration: 10mM).

Turning to DHCR7 (UniProt Q9UBM7), the NP40-soluble protein abundance runs as follows: (concentration: 0.1mM) 1.1 ± 0.1; (concentration: 0.5mM) 1.05 ± 0.11; (concentration: 1mM) 0.98 ± 0.069; (concentration: 2mM) 0.982 ± 0.091; (concentration: 4mM) 0.999 ± 0.11; (concentration: 6mM) 0.959 ± 0.079. Also, the NP40-soluble protein abundance by setting is: (concentration: 8mM) 0.991 ± 0.033; (concentration: 10mM) 0.968 ± 0.052.

Take UniProt Q9UII2: the NP40-soluble protein abundance by setting is: (concentration: 0.1mM) 0.946 ± 0.08; (concentration: 0.5mM) 0.972 ± 0.11; (concentration: 1mM) 1.01 ± 0.078; (concentration: 2mM) 0.936 ± 0.1; (concentration: 4mM) 0.875 ± 0.1; (concentration: 6mM) 0.908 ± 0.14. For the same target, the NP40-soluble protein abundance by setting is: (concentration: 8mM) 0.93 ± 0.07; (concentration: 10mM) 0.963 ± 0.07.

Consider ADPRHL2 (UniProt Q9NX46), for which the NP40-soluble protein abundance by setting is: (concentration: 0.1mM) 0.991 ± 0.021; (concentration: 0.5mM) 0.955 ± 0.017; (concentration: 1mM) 0.95 ± 0.019; (concentration: 2mM) 0.931 ± 0.056; (concentration: 4mM) 0.934 ± 0.06; (concentration: 6mM) 0.907 ± 0.039. The NP40-soluble protein abundance runs as follows: (concentration: 8mM) 0.889 ± 0.079; (concentration: 10mM) 0.931 ± 0.034.
